Source: patent publication US12696902B2, “Pesticidal pyrazole and triazole derivatives” (priority 2019, dated 2026)
Some results were stated once for a whole list of compounds, not compound by compound.

How the values were obtained:
Type in all cases: in vivo
[1] = test system: Yellow Fever Mosquito (Aedes aegypti); details: 800 ppm; freshly hatched A. aegypti larvae; larval mortality visually assessed after 2 days
Description: For evaluating control of yellow fever mosquito (Aedes aegypti) the test unit consisted of 96-well-microtiter plates containing 200 μl of tap water per well and 5-15 freshly hatched A. aegypti larvae.
The active compounds or mixtures were formulated using a solution containing 75% (v/v) water and 25% (v/v) DMSO. Different concentrations of formulated compounds or mixtures were sprayed onto the insect diet at 2.5 μl, using a custom built micro atomizer, at two replications. For experimental mixtures in these tests identical volumes of both mixing partners at the desired concentrations respectively, were mixed together.
After application, microtiter plates were incubated at 28±1° C., 80±15% RH for 2 days. Larval mortality was then visually assessed.

[2] = test system: Boll Weevil (Anthonomus grandis); assay: Action on boll weevil, egg and larval mortality on insect diet in microtiter plates; details: 800 ppm; A. grandis eggs on insect diet; egg and larval mortality after 5 days
Description: For evaluating control of boll weevil (Anthonomus grandis) the test unit consisted of 96-well-microtiter plates containing an insect diet and 5-10 A. grandis eggs.
The compounds were formulated using a solution containing 75% (v/v) water and 25% (v/v) DMSO. Different concentrations of formulated compounds were sprayed onto the insect diet at 5 μl, using a custom built micro atomizer, at two replications.
After application, microtiter plates were incubated at about 25+1° C. and about 75+5% relative humidity for 5 days. Egg and larval mortality were then visually assessed.

[3] = test system: Tobacco Budworm (Heliothis virescens); assay: Action on tobacco budworm, egg and larval mortality on insect diet in microtiter plates; details: 800 ppm; H. virescens eggs on insect diet; egg and larval mortality after 5 days
Description: For evaluating control of tobacco budworm (Heliothis virescens) the test unit consisted of 96-well-microtiter plates containing an insect diet and 15-25 H. virescens eggs.
The compounds were formulated using a solution containing 75% v/v water and 25% v/v DMSO. Different concentrations of formulated compounds were sprayed onto the insect diet at 10 μl, using a custom built micro atomizer, at two replications.
After application, microtiter plates were incubated at about 28+1° C. and about 80+5% relative humidity for 5 days. Egg and larval mortality were then visually assessed.

[4] = test system: Southern Armyworm (Spodoptera eridania), 2nd Instar Larvae; assay: Action on southern armyworm 2nd instar larvae on sprayed lima bean plants; details: 300 ppm, 4 days after treatment
Description: The active compounds were formulated by a Tecan liquid handler in 100% cyclohexanone as a 10,000 ppm solution supplied in tubes. The 10,000 ppm solution was serially diluted in 100% cyclohexanone to make interim solutions. These served as stock solutions for which final dilutions were made by the Tecan in 50% acetone:50% water (v/v) into 10 or 20 ml glass vials. A nonionic surfactant (Kinetic®) was included in the solution at a volume of 0.01% (v/v). The vials were then inserted into an automated electrostatic sprayer equipped with an atomizing nozzle for application to plants/insects.
Lima bean plants (variety Sieva) were grown 2 plants to a pot and selected for treatment at the 1st true leaf stage. Test solutions were sprayed onto the foliage by an automated electrostatic plant sprayer equipped with an atomizing spray nozzle. The plants were dried in the sprayer fume hood and then removed from the sprayer. Each pot was placed into perforated plastic bags with a zip closure. About 10 to 11 armyworm larvae were placed into the bag and the bags zipped closed. Test plants were maintained in a growth room at about 25° C. and about 20-40% relative humidity for 4 days, avoiding direct exposure to fluorescent light (24 hour photoperiod) to prevent trapping of heat inside the bags. Mortality and reduced feeding were assessed 4 days after treatment, compared to untreated control plants.

Row | Structure (SMILES) | mortality in comparison with untreated controls [1] | mortality in comparison with untreated controls [2] | mortality in comparison with untreated controls [3] | mortality in comparison with untreated controls [4]
1 | COc1cc(C(=O)Nc2cn(-c3ccc(/C=N/N=C4\SCC(=O)N4c4ccccc4C(C)C)cc3)nc2C)cnc1C(F)(F)F [Compound C-74] | at least 50% | at least 75% | at least 75% | –
2 | Cc1nn(-c2ccc(/C=N/N=C3\SCC(=O)N3c3ccccc3C(C)C)cc2F)cc1NC(=O)c1ccc(OC(F)(F)F)cc1 [Compound C-2, N-[1-[2-fluoro-4-[(E)-[(Z)-[3-(2-isopropylphenyl)-4-oxo-thiazolidin-2-ylidene]hydrazono]methyl]phenyl]-3-methyl-pyrazol-4-yl]-4-(trifluoromethoxy) benzamide] | at least 50% | – | – | –
3 | COC1C(C)OC(OC(=O)Nc2ccc(-n3ncc(NC(=O)c4ccc(OC(F)(F)F)cc4)n3)cc2)C(OC)C1OC (stereo not drawn) [Compound C-28] | – | at least 75% | – | –
4 | CCCOC1C(OC)C(C)OC(OC(=O)Nc2ccc(-n3cc(C(=O)Nc4ccc(OC(F)(F)F)cc4)c(C)n3)cc2)C1OC (stereo not drawn) [Compound C-27] | – | at least 75% | – | –
5 | Cc1nn(-c2ccc(/C=N/N=C3\SCC(=O)N3c3ccccc3C(C)C)cc2)cc1NC(=O)c1cnccc1C(F)(F)F [Compound C-92] | – | at least 75% | at least 75% | at least 75%
6 | Cc1nn(-c2ccc(/C=N/N=C3\SCC(=O)N3c3ccccc3C(C)C)cc2)cc1NC(=O)c1ccccc1OC(F)F [Compound C-89] | – | – | at least 75% | at least 75%
7 | Cc1cc(C(=O)Nc2cn(-c3ccc(/C=N/N=C4\SCC(=O)N4c4ccccc4C(C)C)cc3)nc2C)cnc1C(F)F [Compound C-66] | at least 50% | – | at least 75% | –
8 | Cc1nn(-c2ccc(/C=N/N=C3\SCC(=O)N3c3ccccc3C(C)C)cc2)cc1NC(=O)c1ccccc1SC(F)F [Compound C-70] | – | – | at least 75% | –
9 | Cc1cc(C(F)(F)F)cnc1C(=O)Nc1cn(-c2ccc(/C=N/N=C3\SCC(=O)N3c3ccccc3C(C)C)cc2)nc1C [Compound C-81] | – | – | at least 75% | at least 75%
10 | Cc1nn(-c2ccc(/C=N/N=C3\SCC(=O)N3c3ccccc3C(C)C)cc2)cc1NC(=O)c1ccncc1C(F)(F)F [Compound C-93] | at least 50% | at least 75% | at least 75% | –
11 | Cc1nn(-c2ccc(/C=N/N=C3\SCC(=O)N3c3ccccc3C(C)C)cc2)cc1NC(=O)c1cc(SC(F)(F)F)ccc1Cl [Compound C-105] | – | at least 75% | at least 75% | at least 75%
12 | Cc1nn(-c2ccc(/C=N/N=C3\SCC(=O)N3c3ccccc3C(C)C)cc2)cc1NC(=O)c1cc(OC(F)(F)F)ccc1Cl [Compound C-90] | – | at least 75% | at least 75% | at least 75%
13 | COC1C(C)OC(OC(=O)Nc2ccc(-n3cc(C(=O)Nc4ccc(OC(F)(F)F)cc4)c(C)n3)cc2)C(OC)C1OC (stereo not drawn) [Compound C-26] | – | at least 75% | – | –
14 | Cc1nn(-c2ccc(/C=N/N=C3\SCC(=O)N3c3ccccc3C(C)C)cc2)cc1COc1ccc(OC(F)(F)F)cc1 [Compound C-34] | – | – | – | at least 75%
15 | Cc1nn(-c2ccc(/C=N/NC(=S)Nc3ccccc3C(C)C)cc2)cc1OCc1ccc(OC(F)(F)F)cc1 [Compound C-32] | – | at least 75% | at least 75% | –
16 | Cc1nn(-c2ccc(/C=N/NC(=S)Nc3ccccc3C(C)C)cc2F)cc1NC(=O)c1ccc(OC(F)(F)F)cc1 [Compound C-1, N-[1-[2-fluoro-4-[(E)-[(2-isopropylphenyl)carbamothioylhydrazono]methyl]phenyl]-3-methyl-pyrazol-4-yl]-4-(trifluoromethoxy) benzamide] | at least 50% | – | – | –

Row | Structure (SMILES) | mortality in comparison with untreated controls [1] | mortality in comparison with untreated controls [2] | mortality in comparison with untreated controls [3] | mortality in comparison with untreated controls [4]
17 | Cc1nn(-c2ccc(/C=N/N=C3\SCC(=O)N3c3ccccc3C(C)C)cc2)cc1NC(=O)c1ccc(C(F)(F)F)c(Cl)n1 [Compound C-94] | – | – | at least 75% | at least 75%
18 | Cc1ccc(C(=O)Nc2cn(-c3ccc(/C=N/N=C4\SCC(=O)N4c4ccccc4C(C)C)cc3)nc2C)cc1C(F)(F)F [Compound C-100] | at least 50% | at least 75% | at least 75% | –
19 | Cc1nn(-c2ccc(/C=N/N=C3\SCC(=O)N3c3ccccc3C(C)C)cc2)cc1NC(=O)c1ccccc1CC(F)(F)F [Compound C-79] | – | – | at least 75% | at least 75%
20 | Cc1nn(-c2ccc(/C=N/N=C3\SCC(=O)N3c3ccccc3C(C)C)cc2)cc1NC(=O)c1cccc(OCC(F)(F)F)c1 [Compound C-77] | – | – | at least 75% | at least 75%
21 | Cc1nn(-c2ccc(/C=N/N=C3\SCC(=O)N3c3ccccc3C(C)C)cc2)cc1NC(=O)c1ccccc1OC(F)(F)F [Compound C-99] | – | – | at least 75% | at least 75%
22 | Cc1nn(-c2ccc(/C=N/N=C3\SCC(=O)N3c3ccccc3C(C)C)cc2)cc1NC(=O)c1ccc(OC(F)F)nc1 [Compound C-64] | at least 50% | at least 75% | at least 75% | –
23 | Cc1nn(-c2ccc(/C=N/N=C3\SCC(=O)N3c3ccccc3C(C)C)cc2)cc1NC(=O)c1cc(F)cc(F)c1 [Compound C-68] | at least 50% | at least 75% | at least 75% | –
24 | Cc1c(NC(=O)c2ccc(OC(F)(F)F)cc2)cnn1-c1ccc(/C=N/NC(=O)Nc2ccccc2C(C)C)cc1 [Compound C-31] | – | at least 75% | – | –
25 | CCc1nn(-c2ccc(/C=N/NC(=O)Nc3ccccc3C(C)C)cc2)cc1NC(=O)c1ccc(OC(F)(F)F)cc1 [Compound C-57] | at least 50% | at least 75% | at least 75% | –
26 | CC(C)c1ccccc1N1C(=O)CS/C1=N\N=C\c1ccc(-n2cc(C(=O)Nc3cccc(OC(F)(F)F)c3)cn2)cc1 [Compound C-21] | – | – | at least 75% | –
27 | Cc1nn(-c2ccc(/C=N/N=C3\SCC(=O)N3c3ccccc3C(C)C)cc2)cc1NC(=O)c1cccc2c1OC(F)(F)O2 [Compound C-69] | – | – | at least 75% | at least 75%
28 | Cc1nn(-c2ccc(/C=N/N=C3\SCC(=O)N3c3ccccc3C(C)C)cc2)cc1NC(=O)c1ccnc(C(F)(F)F)n1 [Compound C-97] | – | – | at least 75% | –
29 | Cc1nn(-c2ccc(/C=N/N=C3\SCC(=O)N3c3ccccc3C(C)C)cc2)cc1NC(=O)c1cc(Cl)ccc1C(F)(F)F [Compound C-78] | – | – | at least 75% | at least 75%
30 | Cc1nn(-c2ccc(/C=N/N=C3\SCC(=O)N3c3ccccc3C(C)C)cc2)cc1NC(=O)c1cnc(C(F)(F)F)cn1 [Compound C-85] | at least 50% | – | at least 75% | –
31 | Cc1ccc(C(F)(F)F)cc1C(=O)Nc1cn(-c2ccc(/C=N/N=C3\SCC(=O)N3c3ccccc3C(C)C)cc2)nc1C [Compound C-96] | – | – | at least 75% | –
